Reference: US20200155643A1
No constants are given. Whether binding was seen depends on the method and setting. Some entries that bind do so weakly or less than the wild type.

By UniProt entry, the sequences of proteins in these tests, tags left out. Residues count along the entry.
UniProt P05981, residues 45-417: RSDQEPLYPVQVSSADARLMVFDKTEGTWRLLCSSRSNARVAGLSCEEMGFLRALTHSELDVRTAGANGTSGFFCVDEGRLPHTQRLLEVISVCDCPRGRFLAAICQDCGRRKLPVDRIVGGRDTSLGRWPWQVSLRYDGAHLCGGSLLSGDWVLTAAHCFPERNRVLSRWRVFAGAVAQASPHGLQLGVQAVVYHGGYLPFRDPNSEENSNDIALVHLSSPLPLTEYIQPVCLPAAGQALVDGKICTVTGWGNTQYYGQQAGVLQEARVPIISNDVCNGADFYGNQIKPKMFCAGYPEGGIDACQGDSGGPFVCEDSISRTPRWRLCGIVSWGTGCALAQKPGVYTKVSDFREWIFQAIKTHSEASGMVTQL

Assays:
[1] = biological target: Recombinant human hepsin (R&D Systems 4776-SE-10) (human) (UniProt P05981); assay: incubation of 50 nM recombinant hepsin with 50 nM PCI, SDS-PAGE, immunoblot with anti-PCI and anti-hepsin
[2] = biological target: Recombinant human hepsin (R&D Systems 4776-SE-10) (human) (UniProt P05981); assay: incubation of recombinant hepsin with PCI, immunoblot (FIG. 3A)
[3] = biological target: T1, Recombinant human matriptase (human) (UniProt Q9Y5Y6); assay: incubation of recombinant matriptase with PCI, immunoblot (FIG. 3B)
T1 sequence: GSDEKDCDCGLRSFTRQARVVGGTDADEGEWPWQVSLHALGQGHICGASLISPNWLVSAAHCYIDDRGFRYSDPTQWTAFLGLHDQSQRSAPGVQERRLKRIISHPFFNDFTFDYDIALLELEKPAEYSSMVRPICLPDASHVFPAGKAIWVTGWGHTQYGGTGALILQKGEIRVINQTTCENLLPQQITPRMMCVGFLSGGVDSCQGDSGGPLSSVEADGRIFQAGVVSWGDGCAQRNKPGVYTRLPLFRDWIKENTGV

[4] = biological target: T1, Recombinant human matriptase (human); assay: incubation of 50 nM recombinant matriptase with 50 nM PCI, SDS-PAGE, immunoblot with anti-PCI and anti-matriptase

Measured: binding

B1: Recombinant human protein C inhibitor (PCI, SERPINA5) (protein)
chain: HRHHPREMKKRVEDLHVGATVAPSSRRDFTFDLYRALASAAPSQSIFFSPVSISMSLAMLSLGAGSSTKMQILEGLGLNLQKSSEKELHRGFQQLLQELNQPRDGFQLSLGNALFTDLVVDLQDTFVSAMKTLYLADTFPTNFRDSAGAMKQINDYVAKQTKGKIVDLLKNLDSNAVVIMVNYIFFKAKWETSFNHKGTQEQDFYVTSETVVRVPMMSREDQYHYLLDRNLSCRVVGVPYQGNATALFILPSEGKMQQVENGLSEKTLRKWLKMFKKRQLELYLPKFSIEGSYQLEKVLPSLGISNVFTSHADLSGISNHSNIQVSEMVHKAVVEVDESGTRAAAATGTIFTFRSARLNSQRLVFNRPFLMFIVDNNILFLGKVNRP
binds: all assays above
